# Source: patent publication US9381166B2 (Rigshospitalet, priority 2007, dated 2016)
# Some entries share one result that the patent states for a list of compounds.
# Tested on: hemostatic system
# Experiment: Testing the required dose of a sympathicomimetic agonist by TEG against adrenaline
# Format: in vivo
# Settings: activation of the hemostatic system equal to adrenaline; for example 30-300 microgram/kg/hour
structure (smiles),measurement,value
CC(CCc1ccc(O)cc1)NCCc1ccc(O)c(O)c1 (stereo not shown) [dobutamin],dose relative to adrenaline and noradrenaline,10-100 × higher
